In PMC4664405:
No constants are given. Whether binding was seen depends on the method and setting. In cells and extracts the contact can be indirect. Binding can be weak; no strength is given.

Sequences of proteins named here, by UniProt entry; tags and fusion partners are left off. A change or cut given only in a name is not applied to a line headed by its entry. Residues count along the entry.
UniProt P07237, residues 18-508: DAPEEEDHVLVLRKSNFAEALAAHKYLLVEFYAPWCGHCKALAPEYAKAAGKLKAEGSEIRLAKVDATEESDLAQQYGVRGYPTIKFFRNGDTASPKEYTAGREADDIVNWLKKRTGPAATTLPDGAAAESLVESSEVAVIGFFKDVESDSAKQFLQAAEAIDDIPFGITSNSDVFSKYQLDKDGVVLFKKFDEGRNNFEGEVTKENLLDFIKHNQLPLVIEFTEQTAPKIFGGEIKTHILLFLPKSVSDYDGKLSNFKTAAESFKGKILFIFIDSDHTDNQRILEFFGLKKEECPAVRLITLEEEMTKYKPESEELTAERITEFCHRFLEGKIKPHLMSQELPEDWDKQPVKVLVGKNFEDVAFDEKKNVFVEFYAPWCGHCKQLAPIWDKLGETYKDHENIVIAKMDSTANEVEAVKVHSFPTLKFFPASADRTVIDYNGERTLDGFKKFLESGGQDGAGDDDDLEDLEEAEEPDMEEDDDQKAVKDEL
UniProt P19686: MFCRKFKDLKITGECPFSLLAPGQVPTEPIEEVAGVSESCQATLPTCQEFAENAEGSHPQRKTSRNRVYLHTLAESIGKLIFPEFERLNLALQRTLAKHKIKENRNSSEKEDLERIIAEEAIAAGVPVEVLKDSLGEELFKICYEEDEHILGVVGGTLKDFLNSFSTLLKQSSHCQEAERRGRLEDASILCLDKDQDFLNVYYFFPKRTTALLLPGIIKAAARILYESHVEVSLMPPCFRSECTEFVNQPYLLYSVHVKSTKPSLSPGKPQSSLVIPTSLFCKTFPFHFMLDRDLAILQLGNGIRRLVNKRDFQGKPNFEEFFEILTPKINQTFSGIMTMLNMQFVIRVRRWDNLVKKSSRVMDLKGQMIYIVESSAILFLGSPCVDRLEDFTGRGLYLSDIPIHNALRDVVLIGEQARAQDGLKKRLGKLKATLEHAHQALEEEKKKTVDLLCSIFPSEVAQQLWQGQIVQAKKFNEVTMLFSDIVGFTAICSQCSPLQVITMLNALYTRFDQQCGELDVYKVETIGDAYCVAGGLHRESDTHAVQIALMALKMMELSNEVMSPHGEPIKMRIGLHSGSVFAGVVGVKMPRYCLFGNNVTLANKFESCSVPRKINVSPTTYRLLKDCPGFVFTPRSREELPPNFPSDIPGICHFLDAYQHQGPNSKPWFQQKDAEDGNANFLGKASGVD

Target: Flag-tagged PDI-WT (UniProt P07237)
Experiment: co-IP; Flag-M2 affinity resin on COS-7 lysates (50 mM TrisHCl, 150 mM NaCl); PDI-Flag co-expressed with one sGC subunit or one α construct; Western blot, densitometry of bound over input

binding | Substance
binds | sGC α catalytic domain alone (αCatDom; amino acids 466–690) (from UniProt P19686) (domain or fragment)
binds | sGC α N-terminal deletion (αΔN; amino acids 258–690) (from UniProt P19686) (domain or fragment)
